Measured values reported in PMC12325586.
No constants are given. Whether binding was seen depends on the method and setting. In cells and extracts the contact can be indirect. Some binding calls cover weakened binding; strength is not graded here. For some of these results: Where a sequence is shown, tags or fusion partners need not be part of it. One block for each substance: values may come before it.

Chains of the proteins cited; added tags and fusions are not shown.
UniProt Q16254: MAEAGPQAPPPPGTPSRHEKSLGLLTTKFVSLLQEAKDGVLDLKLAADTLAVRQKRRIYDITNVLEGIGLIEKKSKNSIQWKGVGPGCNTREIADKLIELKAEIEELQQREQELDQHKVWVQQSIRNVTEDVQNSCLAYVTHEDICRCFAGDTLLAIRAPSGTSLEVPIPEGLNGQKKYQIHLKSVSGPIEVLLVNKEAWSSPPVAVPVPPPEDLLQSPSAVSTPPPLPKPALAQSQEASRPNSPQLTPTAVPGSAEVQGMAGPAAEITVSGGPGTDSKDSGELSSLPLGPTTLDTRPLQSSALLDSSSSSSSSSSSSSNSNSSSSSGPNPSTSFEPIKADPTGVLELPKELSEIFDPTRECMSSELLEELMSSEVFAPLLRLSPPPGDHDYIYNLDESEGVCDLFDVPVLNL
UniProt Q09028: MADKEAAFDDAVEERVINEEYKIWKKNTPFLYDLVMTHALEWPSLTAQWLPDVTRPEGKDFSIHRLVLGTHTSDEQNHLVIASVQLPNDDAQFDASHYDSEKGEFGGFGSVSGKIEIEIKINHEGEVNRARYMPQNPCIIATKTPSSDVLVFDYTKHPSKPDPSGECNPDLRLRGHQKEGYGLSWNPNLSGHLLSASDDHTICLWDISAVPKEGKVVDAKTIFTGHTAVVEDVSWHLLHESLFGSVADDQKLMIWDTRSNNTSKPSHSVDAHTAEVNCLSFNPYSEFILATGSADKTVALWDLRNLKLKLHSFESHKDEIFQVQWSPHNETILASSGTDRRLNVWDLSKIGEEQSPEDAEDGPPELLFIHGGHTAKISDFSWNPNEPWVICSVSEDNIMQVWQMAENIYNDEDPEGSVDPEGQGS

Key:
GFP-tagged OFD1 = biological target: T1, GFP-tagged OFD1 (UniProt O75665); experiment: proximity ligation; PANC1 cells expressing GFP-OFD1; primary antibodies against GFP and E2F4; E2F4 knockdown cells as specificity control
T1 sequence: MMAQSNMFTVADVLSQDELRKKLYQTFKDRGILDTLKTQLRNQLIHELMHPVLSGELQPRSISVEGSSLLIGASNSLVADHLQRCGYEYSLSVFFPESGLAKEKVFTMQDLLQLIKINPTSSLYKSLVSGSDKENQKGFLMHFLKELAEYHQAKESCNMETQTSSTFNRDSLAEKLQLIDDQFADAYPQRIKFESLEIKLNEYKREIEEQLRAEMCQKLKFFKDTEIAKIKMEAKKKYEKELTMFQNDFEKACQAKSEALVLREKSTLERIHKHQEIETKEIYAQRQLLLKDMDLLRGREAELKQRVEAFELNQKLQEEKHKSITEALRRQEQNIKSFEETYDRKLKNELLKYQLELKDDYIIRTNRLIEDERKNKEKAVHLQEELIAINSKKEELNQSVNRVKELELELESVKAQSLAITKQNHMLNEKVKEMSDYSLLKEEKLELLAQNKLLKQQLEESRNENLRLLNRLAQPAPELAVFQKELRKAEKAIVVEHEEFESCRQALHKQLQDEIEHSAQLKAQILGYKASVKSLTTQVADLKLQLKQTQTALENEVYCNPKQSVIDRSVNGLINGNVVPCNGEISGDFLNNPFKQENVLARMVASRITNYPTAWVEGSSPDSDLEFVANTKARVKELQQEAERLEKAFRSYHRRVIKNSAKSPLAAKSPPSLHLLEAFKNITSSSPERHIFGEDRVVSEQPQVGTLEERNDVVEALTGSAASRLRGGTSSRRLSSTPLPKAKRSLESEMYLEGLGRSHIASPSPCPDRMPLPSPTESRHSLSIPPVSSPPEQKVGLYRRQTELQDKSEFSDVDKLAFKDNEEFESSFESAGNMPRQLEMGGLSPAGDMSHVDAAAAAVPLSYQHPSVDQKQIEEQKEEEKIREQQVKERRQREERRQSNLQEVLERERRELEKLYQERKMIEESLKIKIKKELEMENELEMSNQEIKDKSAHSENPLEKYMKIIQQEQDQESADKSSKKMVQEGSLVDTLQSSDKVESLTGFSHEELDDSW

[1] = biological target: T2, OFD1 (Oral-Facial-Digital Syndrome 1 protein), endogenous (human (endogenous in SW1990, MIA PaCa-2, PATU8988T)) (UniProt O75665); experiment: co-IP; endogenous proteins, whole-cell lysates of SW1990, MIA PaCa-2 and PATU8988T cells; protein G magnetic beads with antibodies against OFD1 or E2F4, IgG as negative control; TAP lysis buffer washes
T2 sequence: T1 sequence

[2] = biological target: T3, OFD1, exogenous in HEK293T (mapping co-immunoprecipitation) (UniProt O75665); experiment: co-IP; HEK293T cells transfected with the indicated plasmids, 48 h; TAP lysis buffer; anti-Flag M2 affinity gel, 3 h at 4 °C, eluted with Flag peptide
T3 sequence: T1 sequence

[3] = biological target: E2F4, endogenous (human (endogenous in PANC1, MIA PaCa-2, SW1990, PATU8988T)) (UniProt Q16254); experiment: co-IP; endogenous proteins, whole-cell lysates of PANC1-Tet-shOFD1 and MIA PaCa-2-Tet-shOFD1 cells, with or without OFD1 knockdown or palbociclib (0.5 μM for 48 h); protein G magnetic beads with antibody overnight, TAP lysis buffer washes

binding (GFP-tagged OFD1): binds
binding [1]: binds
Substance: E2F4, endogenous (from UniProt Q16254 1-413)

binding [2]: binds
Substance: E2F4, exogenous in HEK293T (mapping co-immunoprecipitation) (from UniProt Q16254 1-413)

binding [3]: binds
Substance: RBBP4, endogenous (from UniProt Q09028 1-425)
